# Some results were stated once for a whole list of compounds, not compound by compound. For at least one compound, name, drawing or mass did not settle the structure.
# System: M. grisea
# Type: cell-based, Magnaporthe grisea
# Details: medium (H2O or CM) not stated
row,Compound,Aktivität gegenüber M. grisea
1,"COc1cc(OC)c([Se]c2cc(OC)c(OC)cc2OC)cc1OC [Verbindung 26, Bis(2,4,5-trimethoxyphenyl)selen]",selektive fungizide Wirkung
2,"COc1cc(C)c([Se]c2cc(OC)c(OC)cc2C)cc1OC [Verbindung 27, Bis(3,4-dimethoxy-6-methylphenyl)selen]",selektive fungizide Wirkung
3,"COc1cc(C)c([Se]c2c(C)cc(OC)c(OC)c2OC)c(OC)c1OC [Verbindung 28, Bis(6-methyl-2,3,4-trimethoxyphenyl)selen]",selektive fungizide Wirkung
